According to article PMC6773851:
No constants are given. Whether binding was seen depends on the method and setting. For some of these results: Binding seen in cells or lysates may run through a third protein. Some entries that bind do so weakly or less than the wild type.

Protein sequences, listed by entry. Tags and fused reporters are not part of them. Lines headed by an entry give the natural chain unless they say otherwise; changes in a name come on top.
UniProt P0A6X3: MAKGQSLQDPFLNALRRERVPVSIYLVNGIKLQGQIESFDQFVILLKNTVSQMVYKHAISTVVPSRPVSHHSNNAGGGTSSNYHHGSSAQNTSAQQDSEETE
UniProt P0A8T7: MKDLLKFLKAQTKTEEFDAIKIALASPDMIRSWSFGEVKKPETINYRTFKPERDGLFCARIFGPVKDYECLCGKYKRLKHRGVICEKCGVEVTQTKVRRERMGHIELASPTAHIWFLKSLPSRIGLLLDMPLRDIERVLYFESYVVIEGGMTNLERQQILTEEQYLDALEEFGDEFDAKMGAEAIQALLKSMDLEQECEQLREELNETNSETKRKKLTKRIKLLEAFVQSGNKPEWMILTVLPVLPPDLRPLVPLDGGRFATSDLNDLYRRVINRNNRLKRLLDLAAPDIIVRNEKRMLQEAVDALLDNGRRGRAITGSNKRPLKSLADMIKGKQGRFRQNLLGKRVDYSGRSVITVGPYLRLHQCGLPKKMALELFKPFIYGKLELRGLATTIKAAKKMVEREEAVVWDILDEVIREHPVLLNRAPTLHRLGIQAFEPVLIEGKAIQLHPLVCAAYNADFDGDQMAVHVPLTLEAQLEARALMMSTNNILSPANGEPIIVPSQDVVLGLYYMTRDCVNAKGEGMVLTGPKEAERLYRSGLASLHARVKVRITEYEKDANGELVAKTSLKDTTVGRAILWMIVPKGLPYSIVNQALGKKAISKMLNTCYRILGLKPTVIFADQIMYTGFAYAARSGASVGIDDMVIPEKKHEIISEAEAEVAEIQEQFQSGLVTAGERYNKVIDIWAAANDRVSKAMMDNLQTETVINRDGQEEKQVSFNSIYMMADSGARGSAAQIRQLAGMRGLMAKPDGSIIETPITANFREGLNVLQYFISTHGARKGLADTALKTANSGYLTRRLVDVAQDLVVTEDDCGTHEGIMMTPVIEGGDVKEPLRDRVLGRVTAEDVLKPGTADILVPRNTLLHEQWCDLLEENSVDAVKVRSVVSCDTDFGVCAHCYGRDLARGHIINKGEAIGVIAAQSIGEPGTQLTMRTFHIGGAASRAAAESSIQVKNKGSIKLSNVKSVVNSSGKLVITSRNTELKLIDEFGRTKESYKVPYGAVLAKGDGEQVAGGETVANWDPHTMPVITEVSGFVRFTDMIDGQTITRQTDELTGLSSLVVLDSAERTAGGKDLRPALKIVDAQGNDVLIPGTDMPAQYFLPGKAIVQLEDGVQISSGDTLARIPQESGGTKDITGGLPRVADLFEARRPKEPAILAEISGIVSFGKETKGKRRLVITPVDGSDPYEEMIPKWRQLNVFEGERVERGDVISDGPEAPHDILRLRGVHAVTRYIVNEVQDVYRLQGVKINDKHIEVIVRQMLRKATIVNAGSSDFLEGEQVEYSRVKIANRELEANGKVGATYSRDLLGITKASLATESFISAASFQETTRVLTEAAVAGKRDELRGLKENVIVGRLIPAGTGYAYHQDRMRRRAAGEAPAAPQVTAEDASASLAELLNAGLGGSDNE
UniProt P0A8V2: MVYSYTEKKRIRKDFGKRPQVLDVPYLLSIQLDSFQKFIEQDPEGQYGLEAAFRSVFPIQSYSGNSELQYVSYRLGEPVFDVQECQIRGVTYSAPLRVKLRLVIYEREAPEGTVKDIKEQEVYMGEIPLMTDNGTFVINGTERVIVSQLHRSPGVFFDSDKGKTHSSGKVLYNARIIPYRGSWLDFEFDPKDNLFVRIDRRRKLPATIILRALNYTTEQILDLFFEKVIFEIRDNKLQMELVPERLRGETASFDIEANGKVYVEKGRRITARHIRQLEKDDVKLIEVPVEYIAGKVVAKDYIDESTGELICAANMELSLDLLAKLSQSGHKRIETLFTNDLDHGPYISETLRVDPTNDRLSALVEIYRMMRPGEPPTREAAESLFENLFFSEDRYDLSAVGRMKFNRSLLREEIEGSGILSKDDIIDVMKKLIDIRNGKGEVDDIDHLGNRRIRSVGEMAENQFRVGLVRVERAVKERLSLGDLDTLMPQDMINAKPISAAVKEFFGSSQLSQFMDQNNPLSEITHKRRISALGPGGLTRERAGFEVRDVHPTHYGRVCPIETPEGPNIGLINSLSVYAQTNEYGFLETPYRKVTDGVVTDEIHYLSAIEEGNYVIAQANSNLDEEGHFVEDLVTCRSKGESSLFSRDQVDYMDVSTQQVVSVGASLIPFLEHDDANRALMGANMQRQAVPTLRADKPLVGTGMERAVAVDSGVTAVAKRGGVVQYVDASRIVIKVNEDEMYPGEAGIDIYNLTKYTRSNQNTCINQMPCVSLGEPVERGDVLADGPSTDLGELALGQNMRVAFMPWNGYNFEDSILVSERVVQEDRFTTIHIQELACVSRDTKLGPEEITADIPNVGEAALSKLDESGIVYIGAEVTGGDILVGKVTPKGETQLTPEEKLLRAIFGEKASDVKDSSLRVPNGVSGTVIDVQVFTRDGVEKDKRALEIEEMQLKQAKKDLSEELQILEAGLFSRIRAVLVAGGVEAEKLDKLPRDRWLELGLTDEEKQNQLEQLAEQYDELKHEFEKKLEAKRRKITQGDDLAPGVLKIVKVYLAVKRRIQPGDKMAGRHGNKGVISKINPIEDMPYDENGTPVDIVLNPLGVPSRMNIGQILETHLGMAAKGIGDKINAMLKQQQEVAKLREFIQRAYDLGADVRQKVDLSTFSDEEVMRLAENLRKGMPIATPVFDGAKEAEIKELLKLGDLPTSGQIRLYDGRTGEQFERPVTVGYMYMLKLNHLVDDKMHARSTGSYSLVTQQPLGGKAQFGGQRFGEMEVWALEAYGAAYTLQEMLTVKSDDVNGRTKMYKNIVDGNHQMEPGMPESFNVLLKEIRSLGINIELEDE
UniProt P0ABA4: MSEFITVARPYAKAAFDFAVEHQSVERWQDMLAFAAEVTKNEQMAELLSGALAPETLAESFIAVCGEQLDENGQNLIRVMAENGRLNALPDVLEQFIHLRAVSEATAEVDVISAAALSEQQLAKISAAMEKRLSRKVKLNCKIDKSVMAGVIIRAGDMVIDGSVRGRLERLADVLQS
UniProt P0ABA0: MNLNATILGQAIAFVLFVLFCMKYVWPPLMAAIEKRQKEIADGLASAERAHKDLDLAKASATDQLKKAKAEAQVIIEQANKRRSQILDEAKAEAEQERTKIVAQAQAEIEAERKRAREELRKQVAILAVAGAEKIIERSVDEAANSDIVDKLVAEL
UniProt P0ABB0: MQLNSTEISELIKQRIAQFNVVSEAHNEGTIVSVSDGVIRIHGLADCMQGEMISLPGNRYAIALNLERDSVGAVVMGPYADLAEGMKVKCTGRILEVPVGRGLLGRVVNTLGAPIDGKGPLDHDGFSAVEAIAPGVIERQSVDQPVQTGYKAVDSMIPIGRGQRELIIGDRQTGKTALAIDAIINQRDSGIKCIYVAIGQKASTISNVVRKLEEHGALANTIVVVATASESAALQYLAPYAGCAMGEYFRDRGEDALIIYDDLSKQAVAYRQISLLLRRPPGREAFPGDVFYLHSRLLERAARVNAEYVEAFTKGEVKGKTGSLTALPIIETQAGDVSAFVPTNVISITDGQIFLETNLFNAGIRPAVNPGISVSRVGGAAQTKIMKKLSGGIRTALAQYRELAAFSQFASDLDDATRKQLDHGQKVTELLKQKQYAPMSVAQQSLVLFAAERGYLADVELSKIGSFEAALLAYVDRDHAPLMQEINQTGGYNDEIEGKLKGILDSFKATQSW
UniProt P0ABB4: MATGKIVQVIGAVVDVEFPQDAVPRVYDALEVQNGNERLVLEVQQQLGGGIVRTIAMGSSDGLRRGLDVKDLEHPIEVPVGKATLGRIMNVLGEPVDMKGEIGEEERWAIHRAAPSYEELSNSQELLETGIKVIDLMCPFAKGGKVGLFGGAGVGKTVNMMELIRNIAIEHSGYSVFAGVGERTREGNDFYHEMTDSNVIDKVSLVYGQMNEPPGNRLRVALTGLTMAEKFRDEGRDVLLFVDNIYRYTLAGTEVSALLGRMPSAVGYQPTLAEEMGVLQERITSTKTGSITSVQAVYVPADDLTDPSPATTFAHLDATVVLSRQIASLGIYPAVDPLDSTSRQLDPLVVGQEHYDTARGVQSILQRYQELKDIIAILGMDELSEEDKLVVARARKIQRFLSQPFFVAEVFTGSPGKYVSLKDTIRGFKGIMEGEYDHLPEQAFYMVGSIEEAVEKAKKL
UniProt P0A6P9: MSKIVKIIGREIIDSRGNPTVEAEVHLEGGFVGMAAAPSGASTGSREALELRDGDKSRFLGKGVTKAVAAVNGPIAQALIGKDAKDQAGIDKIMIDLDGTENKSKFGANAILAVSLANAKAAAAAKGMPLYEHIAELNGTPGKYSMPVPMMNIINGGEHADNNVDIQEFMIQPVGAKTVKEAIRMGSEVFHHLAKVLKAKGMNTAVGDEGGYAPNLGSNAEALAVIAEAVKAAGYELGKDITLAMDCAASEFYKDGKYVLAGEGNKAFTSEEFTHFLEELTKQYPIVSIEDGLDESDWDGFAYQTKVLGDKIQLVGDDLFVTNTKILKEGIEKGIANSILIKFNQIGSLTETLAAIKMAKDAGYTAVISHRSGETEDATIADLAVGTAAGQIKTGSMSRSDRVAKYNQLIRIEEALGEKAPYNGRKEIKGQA
UniProt P0A7Z4: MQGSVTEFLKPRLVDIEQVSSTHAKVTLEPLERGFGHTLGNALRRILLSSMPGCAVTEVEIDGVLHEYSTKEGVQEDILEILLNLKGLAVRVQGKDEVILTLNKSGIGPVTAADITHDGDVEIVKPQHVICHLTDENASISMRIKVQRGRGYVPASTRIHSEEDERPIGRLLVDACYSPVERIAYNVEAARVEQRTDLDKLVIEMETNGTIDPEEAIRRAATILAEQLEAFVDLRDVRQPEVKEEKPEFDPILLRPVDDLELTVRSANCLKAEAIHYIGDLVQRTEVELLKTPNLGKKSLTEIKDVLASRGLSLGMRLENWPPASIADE
UniProt P0A6Y8: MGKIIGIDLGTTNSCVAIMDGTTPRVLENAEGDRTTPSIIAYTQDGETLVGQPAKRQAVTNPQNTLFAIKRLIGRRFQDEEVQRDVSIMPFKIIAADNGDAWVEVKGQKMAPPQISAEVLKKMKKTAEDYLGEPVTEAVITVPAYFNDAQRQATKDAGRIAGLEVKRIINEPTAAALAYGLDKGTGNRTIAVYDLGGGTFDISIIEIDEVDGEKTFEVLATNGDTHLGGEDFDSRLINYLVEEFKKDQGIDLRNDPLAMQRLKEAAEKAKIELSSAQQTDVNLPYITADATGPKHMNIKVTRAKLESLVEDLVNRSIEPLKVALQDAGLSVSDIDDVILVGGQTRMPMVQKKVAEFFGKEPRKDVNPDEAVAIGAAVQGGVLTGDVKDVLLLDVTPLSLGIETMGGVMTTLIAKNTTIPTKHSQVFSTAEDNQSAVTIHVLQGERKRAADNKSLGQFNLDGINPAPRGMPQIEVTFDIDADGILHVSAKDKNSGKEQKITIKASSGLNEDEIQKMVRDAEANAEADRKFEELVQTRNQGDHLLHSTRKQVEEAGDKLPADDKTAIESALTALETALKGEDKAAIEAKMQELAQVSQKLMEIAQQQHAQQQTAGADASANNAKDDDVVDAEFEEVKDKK
UniProt P0AES4: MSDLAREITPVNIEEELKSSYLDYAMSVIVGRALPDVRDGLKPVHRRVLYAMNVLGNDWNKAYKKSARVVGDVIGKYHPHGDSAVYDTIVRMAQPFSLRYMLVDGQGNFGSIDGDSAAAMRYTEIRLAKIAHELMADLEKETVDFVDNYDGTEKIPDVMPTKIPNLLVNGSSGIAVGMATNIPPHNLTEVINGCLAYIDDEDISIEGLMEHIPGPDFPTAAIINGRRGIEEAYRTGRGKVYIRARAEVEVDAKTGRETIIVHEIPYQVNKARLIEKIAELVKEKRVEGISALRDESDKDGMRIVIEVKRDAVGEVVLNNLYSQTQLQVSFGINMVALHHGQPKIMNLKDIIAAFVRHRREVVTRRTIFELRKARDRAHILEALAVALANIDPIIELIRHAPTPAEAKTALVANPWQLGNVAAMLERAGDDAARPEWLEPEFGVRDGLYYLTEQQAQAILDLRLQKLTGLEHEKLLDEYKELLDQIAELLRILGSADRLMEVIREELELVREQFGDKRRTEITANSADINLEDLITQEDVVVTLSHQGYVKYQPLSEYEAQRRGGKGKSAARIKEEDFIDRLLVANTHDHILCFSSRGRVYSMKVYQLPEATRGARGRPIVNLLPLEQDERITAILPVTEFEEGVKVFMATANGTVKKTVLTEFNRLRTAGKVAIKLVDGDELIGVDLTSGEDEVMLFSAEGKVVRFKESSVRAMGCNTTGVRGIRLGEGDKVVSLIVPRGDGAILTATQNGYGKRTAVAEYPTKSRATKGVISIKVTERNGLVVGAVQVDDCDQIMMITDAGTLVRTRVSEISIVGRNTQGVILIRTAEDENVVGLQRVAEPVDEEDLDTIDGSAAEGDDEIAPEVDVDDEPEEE

How the values were obtained:
[1] = biological target: HfqH6 (His6-tagged Hfq expressed from pHfqH6) (E. coli) (UniProt P0A6X3); experiment: cross-linking; in vivo, 0.25 mM DSP in PBS, 1 h at 37 °C, late exponential phase; HfqH6 complexes enriched on Ni-Agarose; with or without 50 mM DTT; SDS-PAGE, 24 gel slices analysed by mass spectrometry; no RNase A treatment
[2] = biological target: RNA polymerase β′ subunit, C-terminally His-tagged (from the purified polymerase, resolved on the gel) (E. coli) (UniProt P0A8T7); experiment: far-Western, overlay or dot blot; purified proteins on 12.5% SDS-PAGE, blotted to nitrocellulose, denatured with guanidine-HCl and renatured, incubated overnight at 4 °C with 20 µg purified Hfq in 20 ml protein-binding buffer; bound Hfq detected with an anti-Hfq polyclonal antibody; both purified
[3] = biological target: RNA polymerase β subunit (from the purified polymerase, resolved on the gel) (E. coli) (UniProt P0A8V2); experiment: as above
[4] = biological target: T1, Poly(A)polymerase, PAP (purified) (E. coli) (UniProt P0ABF1); experiment: as above
T1 sequence: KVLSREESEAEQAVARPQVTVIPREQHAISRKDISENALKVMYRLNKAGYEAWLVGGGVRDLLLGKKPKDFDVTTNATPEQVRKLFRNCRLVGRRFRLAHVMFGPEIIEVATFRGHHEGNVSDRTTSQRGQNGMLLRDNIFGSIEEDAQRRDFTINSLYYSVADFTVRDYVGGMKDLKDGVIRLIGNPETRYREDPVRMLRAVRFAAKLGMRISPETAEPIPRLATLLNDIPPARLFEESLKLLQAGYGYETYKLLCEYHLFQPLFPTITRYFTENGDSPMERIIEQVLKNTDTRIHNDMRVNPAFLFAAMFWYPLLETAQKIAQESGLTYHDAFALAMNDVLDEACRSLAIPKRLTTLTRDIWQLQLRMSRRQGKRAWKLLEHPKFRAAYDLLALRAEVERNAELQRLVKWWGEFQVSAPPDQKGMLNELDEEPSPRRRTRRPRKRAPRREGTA

[5] = biological target: T1, Poly(A)polymerase, PAP (purified) (E. coli); experiment: condition: only the 53.8 kDa monomeric band of poly(A) polymerase on the blot; far-Western, overlay or dot blot; purified proteins on 12.5% SDS-PAGE, blotted to nitrocellulose, denatured with guanidine-HCl and renatured, incubated overnight at 4 °C with 20 µg purified Hfq in 20 ml protein-binding buffer; bound Hfq detected with an anti-Hfq polyclonal antibody; both purified
[6] = biological target: Ec-HfqHis6 (purified) (E. coli) (UniProt P0A6X3); experiment: MST; S1 and RNA polymerase with Hfq, with and without total RNA; data not shown; both purified

| Substance | binding [1] | other results |
| --- | --- | --- |
| ATP synthase subunit ATPD (from UniProt P0ABA4 1-177) | binds |  |
| ATP synthase subunit ATPF (from UniProt P0ABA0 1-156) | binds |  |
| ATP synthase subunit alpha (from UniProt P0ABB0 1-513) | binds |  |
| ATP synthase subunit beta (from UniProt P0ABB4 1-460) | binds |  |
| Ec-HfqHis6 (purified) (from UniProt P0A6X3 1-102) |  | binding [2]: binds weakly; binding [3]: binds weakly; binding [4]: binds weakly; binding [5]: no binding |
| Enolase (Eno) (from UniProt P0A6P9 1-432) | binds |  |
| RNA polymerase (α, β, β′-His6, ω), purified (from UniProt P0A7Z4 1-329; P0A8V2 1-1342; P0A8T7 1-1407; P0A800 1-91) (complex) |  | binding [6]: binds weakly |

Continued, in another order:

| binding [1] | Substance | other results |
| --- | --- | --- |
| binds | Chaperone protein dnaK (from UniProt P0A6Y8 1-638) |  |
| binds | DNA gyrase subunit A (from UniProt P0AES4 1-875) |  |
| binds | RecA (from UniProt P0A7G6 1-353) |  |
